Source: paper PMC11425837
Results are given in words; binding and its absence hold for the method and conditions named. Binding seen in cells or lysates may run through a third protein. Some entries that bind do so weakly or less than the wild type. Sequences can lack the tags named with a protein.

Sequences of proteins named here, by UniProt entry; tags and fusion partners are left off.
UniProt P11499: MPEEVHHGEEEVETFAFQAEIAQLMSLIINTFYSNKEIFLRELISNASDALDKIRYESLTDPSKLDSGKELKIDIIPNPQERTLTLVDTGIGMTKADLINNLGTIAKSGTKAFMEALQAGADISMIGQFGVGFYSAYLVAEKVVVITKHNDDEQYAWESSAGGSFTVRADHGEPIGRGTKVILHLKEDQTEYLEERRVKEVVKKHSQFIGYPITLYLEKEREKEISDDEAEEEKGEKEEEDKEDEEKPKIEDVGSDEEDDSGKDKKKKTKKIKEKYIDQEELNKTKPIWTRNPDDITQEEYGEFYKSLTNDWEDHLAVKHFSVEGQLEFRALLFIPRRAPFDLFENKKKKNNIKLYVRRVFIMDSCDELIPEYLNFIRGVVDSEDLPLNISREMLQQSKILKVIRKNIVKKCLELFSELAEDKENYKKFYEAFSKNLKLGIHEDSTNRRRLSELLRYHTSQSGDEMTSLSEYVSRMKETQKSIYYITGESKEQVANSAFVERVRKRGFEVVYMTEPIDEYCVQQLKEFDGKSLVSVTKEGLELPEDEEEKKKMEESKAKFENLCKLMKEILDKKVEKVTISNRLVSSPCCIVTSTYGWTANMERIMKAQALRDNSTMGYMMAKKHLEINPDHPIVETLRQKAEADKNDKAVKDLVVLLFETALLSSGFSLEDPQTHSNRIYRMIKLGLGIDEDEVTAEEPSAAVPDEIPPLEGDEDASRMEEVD

Target: Flag‐HSP90ab1 (UniProt P11499)
Experiment: co-IP; HEK293T cells transfected with the indicated plasmids (Flag-HSP90ab1 or its KR mutants, His-SENP1, SUMO1); antibody on beads, lysate 2 h, Western blot

B1: His‐SENP1 (enzyme, UniProt P59110 1-640)
chain: MDDTADGVKMDAGEVTLVNHGSTFRTHRPPQSGFPEEQLLLSDQQSLPFRQGTLDGSFTCSTRSPAYRPDYHSDNPSSDSFLGSGDVRTFGQSANGQWRNSTPASGSAPQKPRNSRSLCLETRKTSSGLSNTFVGKSNHHCHMSAYEKSFPIKPAPSPSWSGSCRRSLLSPKKTQRRHFSTAEETVQEEEKEIYRQLLQMVTGKQFCVAKPTTHFPLRLSRCLSSNKNSLKDSLLRNGNSCASHVIGSDTSSSGSASILTAQEQLSHSAHSLSSGTPDVAFGSKDSDPHHHLAAPHQPNSLPASNTQSEGSDSVILLKVKESQTPASSPTFFQAELWIKELTSVYDSRARERLRRIEEQKALALQLQNQRLQEQEHAVLDSVELHLRVPLEKEIPVTAAQETRKKSHQLTDSEDEFPEITEEMEKEIKNVFRNGNQDEVLSEAFRLTITRKDIQTLNHLNWLNDEIINFYMNMLMERSKEKGFPSVHAFNTFFFTKLKTAGYQAVKRWTKKVDVFSVDILLVPIHLGVHWCLAVVDFRRKSITYYDSMGGINNEACRILLQYLKQESVDKKRKEFDTNGWQLFSKKSQEIPQQMNGSDCGMFACKYADCITKDRPINFTQQHMPYFRKRMVWEILHRKLL
binding: binds
